Results deposited as PubChem BioAssay AID504793 (Drosophila RNAi Screening Center, 2011)

- Test: 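Knock-downs allowing continued mitosis even though DNA is damaged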 (primary screen)
- Cell system: Drosophila S2R+ cells
- Knock-down reagent: long dsRNA against Drosophila genes, about 0.25 µg dsRNA per well
- Time to read-out: 4 days of dsRNA, then 4 hours of drug before read-out
- Conditions: doxorubicin 0.5 µM for 4 hours to cause double-strand breaks, in cells also given a low, harmless dose of dsRNA against nbs to sensitise the assay
- Measured: 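Per-well count of mitotic cells stained for phospho-histone H3 after doxorubicin exposure, used as mitotic index; counts are raw and not normalised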
- Scale: mitotic cells: higher = more cells in mitosis, weaker G2 arrest
- Call rule: 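Genes are called active only when high mitotic counts were reproduced with independent dsRNAs and mitosis was checked for delay without damage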
- Meaning of the calls: active = confirmed in follow-up tests; inactive = not confirmed
The deposit covers about 23,000 reagents; shown is an unselected part of those with a known target gene and a result. Over the whole deposit, 62 (0.27%) got an active call. 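Calls come from follow-up tests whose scores are not deposited, so confirmed genes may have low counts here; counts are not normalised per plate.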 The raw values are shown without normalisation. The numbers tell different reagents against one gene apart.

How did the screen score Vps60 (Vacuolar protein sorting 60)?
mitotic cells, replicate 1: 4; activity call: inactive

What did the screen give for GILT1 (Gamma-interferon-inducible lysosomal thiol reductase 1)?
mitotic cells, replicate 1: 5; activity call: inactive

With Acsx3 (Acyl-CoA synthetase X3), what does the deposit list?
mitotic cells, replicate 1: 4; activity call: inactive

How did the screen score CG11327?
mitotic cells, replicate 1: 5; activity call: inactive

What did the screen give for Acp65Aa (Adult cuticle protein 65Aa) #1?
mitotic cells, replicate 1: 5; activity call: inactive

With Acp65Aa (Adult cuticle protein 65Aa) #2, what does the deposit list?
mitotic cells, replicate 1: 4; activity call: inactive

For CG5532, how do the results read?
mitotic cells, replicate 1: 12; activity call: inactive

Reprinted from the listing for reference:
Acsx3 (Acyl-CoA synthetase X3) | mitotic cells, replicate 1 = 4; activity call = inactive
CG11327 | mitotic cells, replicate 1 = 5; activity call = inactive

Additional results follow.
For ReepA (Receptor expression enhancing protein A) #1, what was measured?
mitotic cells, replicate 1: 6; activity call: inactive

How did the screen score ReepA (Receptor expression enhancing protein A) #2?
mitotic cells, replicate 1: 18; activity call: inactive

With ReepA (Receptor expression enhancing protein A) #3, how do the results read?
mitotic cells, replicate 1: 2; activity call: inactive

What did the screen give for ReepA (Receptor expression enhancing protein A) #4?
mitotic cells, replicate 1: 6; activity call: inactive

For muc (midline uncoordinated) #1, how do the results read?
mitotic cells, replicate 1: 5; activity call: inactive

With muc (midline uncoordinated) #2, what does the deposit list?
mitotic cells, replicate 1: 23; activity call: inactive

What did the screen give for muc (midline uncoordinated) #3?
mitotic cells, replicate 1: 18; activity call: inactive
